Our source for the binding values is patent US20260167739A1.

Sequences and labels used below:
B1: L3D5-H1L1 (antibody, V domains shown)
VH: QVQMQESGPGLVKPSETLSLSCTASGYTFTDFYMNWVRQSAGKGLEWIGDINPNNGVTTYNQKFKDRASLSVDKSRNWASLRLASVTAADTAVYYCATGAIHYGYDGYFDVWGPGVQVTVSS
VL: EIVMTQSPDTLSVSPGETVTLSCRASQSISDYLHWYQQKPGQSPRLLIKYASQSISAFPARFVGSGSGSEFTLTINNMQSEDVAVYYCQNGHSFPLTFGQGTKVDIK
B2: L1D8-CR11-C (antibody, V domains shown)
VH: QVQLQQSGAELMKPGASLKLSCKATGYTFTGYWIEWVKQRPGHGLEWIGEILPGRSSTNYNERFKGKAIFTADTSSNTAYMQLSSLTTEDSAIYYCARGRRDFDYWGQGTTITVSS
VL: SIVMTQTPKFLPVSAGDRVTMTCKASQSVGNNVAWYQQKPGQSPKVLIYDASNRYTGVPDRFTGSGSGTDFTFTISSVQVEDLAVYFCQQYYSSPPTFGAGTKLELK
B3: L1D8-CR21-C (antibody, V domains shown)
VH: QVQLQQSGAELMKPGASLKLSCKATGYTFTGSWIEWVKQRPGHGLEWIGEILPGRSSTNYNERFKGKAIFTADTSSNTAYMQLSSLTTEDSAIYYCARGRRDFDYWGQGTTITVSS
VL: SIVMTQTPKFLPVSAGDRVTMTCKASQSVGNNVAWYQQKPGQSPKVLIYDASNRYTGVPDRFTGSGSGTDFTFTISSVQVEDLAVYFCQQYYSSPPTFGAGTKLELK
B4: S3C7-C (antibody, V domains shown)
VH: EVKLVESGGGLVNTGGSLKLSCAASGFNFSHYYMYWVRQTPEKRLEWVAYIGNSGGSTYNPDTVKGRFTISRDNAKNTLYLQMSRLKSEDTAIYYCARQNYYSGSFYFDSWGQGTTITVSS
VL: NIVLTQSPTSMSMSVGERVTLSCKASENVGTYVSWYQQKPEQSPKLLIYGKSNRYTGVPDRFTGSGSAPDFTLTISSVQAEDLADYYCGQSYSFPFTFGTGTKLEIK
B5: L3F10-C (antibody, V domains shown)
VH: EVKLVESGGGLVNTGGSLKLSCAASGFTFSDYFMYWVRQTPDKRLEWVAYISNSGGNTYYPDTVKGRFTISRDNAKNTLYLQMSRLKSEDTAMYFCTRPRPYGGYYAGIYYAMDYWGQGTSVTVSS
VL: DIQMTQTTSSLSASLGDRVTISCRASQDISNYLNWYQQKPDGTVKLLIYYTSRLHSGVPSRFSGSGSGTDYSLTISNLEPEDIATYYCQQYSKLPLTFGAGTKLELK
B6: L3E1-C (antibody, V domains shown)
VH: QVQLQQFGAELVKPGAAVKMSCKASGYTFTSYWITWVKQRPGQGLDWIGDIYPGGGSTNYHEKFKSKATLTVDTSSSTAYMQLSSLTSEDSAVYYCARGLRDFDYWGQGTTITVSS
VL: DIQMTQTASSLSASLGDRVTISCRASQHINNYLNWYQQKPDGTVKLLIYSTSRLHSGVPSRFSGSGSGTDFSLTISNLEPEDIATYYCQQYSKLPRTFGGGTKLEIK
B7: S2F4-C (antibody, V domains shown)
VH: EVQLVESGGGLVKPGGSLKLSCAASGFTFSDYGMHWVRQAPEKGLEWIAYISFGSSTIYYADTVKGRFTISRDNAKNTLFLQMTSLRSEDTAMYYCARTHGYYRSWFAYWGQGTLVTVSA
VL: DIVLTQSPASLAVSLGQRATISCRASQSVSTSSYSYMNWYQQKPGQPPKLLIKYASNLESGVPARFSGSGSGTDFTLNIHPVEEEDTATYYCQHSWEIPLTFGAGTKLELK
B8: L1H7-C (antibody, V domains shown)
VH: QVQLQQSGPELVKPGASVKISCKASGYAFSSSWMNWVKQRPGKGLEWIGRIYPGNGNTNYNGKFKGKATLTADKSSSTAYMQLNSLTSEDSAVYFCASRFAYWGQGTLVAVSA
VL: DIVLTQSPASLAVSLGQRATISCRASKSVSTSGYSYMHWYQQKPGQPPKLLIYLASNLESGVPARFSGSGSGTDFTLNIHPVEEEDAATYYCQHSRELRTFGGGTKLEIK
B9: L1F2-C (antibody, V domains shown)
VH: QVHLQQSGAELVRPGTSVKVSCKASGYAFTNYVIEWVKQRPGQGLEWIGVINPGSGGTNYNENFKGKATLTADKSSSTAYMQLSSLTSEDSAVYFCARGTVELYAMDYWGQGTSVTVSS
VL: DIQMTQTTSSLSASLGDRVTISCRASQDISYYLNWYQQKPDGTVKLLISYTSRLHSGVPSRFSGSGSGTDYSLTISNLEQEDIATYFCQQDIKHPYTFGGGTELEIK
B10: L3D5-C (antibody, V domains shown)
VH: GVQLQQSGPELVKPGASVKISCKASGYTFTDFYMNWVKQSHGKSLEWIGDINPNNGVTTYNQKFKDKATLTVDKSSSTAYMELRSLTSEDSAVYYCATGAIHYGYDGYFDVWGAGTTVTVSS
VL: DIVMTQSPATLSVTPGDRVSLSCRASQSISDYLHWYQQKSHESPRLLIKYASQSISGIPSRFSGSGSGSDFTLSINSVEPEDVGVYYCQNGHSFPLTFGAGTKLELK
B11: L2B11-C (antibody, V domains shown)
VH: EVKLVESEGGLVQPGSSMKLSCTASGFTFSDYYMAWVRQVPEKGLEWVGNINYDGSRTYYLDSLKSRFIISRDNGKNILYLQMSSLKSEDTATYYCAREGDNYGNSHYAMDYWGQGTSVTVSS
VL: DVLMTQTPLSLPVSLGDQASISCRSSQSFVHSNGNTYLEWYLQKPGQSPKLLIYKVSNRFSGVPDRFTGSGSGTDFTLKISRVEAEDLGVYYCFQGSHVPLTFGAGTRLELK

No constants are given. Whether binding was seen depends on the method and setting. Some binding calls cover weakened binding; strength is not graded here.

The target of the experiment is T1, 5T4 on SK-OV-3 cells (ATCC, CAT #HTB-79) (UniProt Q13641).
T1 sequence (looked up): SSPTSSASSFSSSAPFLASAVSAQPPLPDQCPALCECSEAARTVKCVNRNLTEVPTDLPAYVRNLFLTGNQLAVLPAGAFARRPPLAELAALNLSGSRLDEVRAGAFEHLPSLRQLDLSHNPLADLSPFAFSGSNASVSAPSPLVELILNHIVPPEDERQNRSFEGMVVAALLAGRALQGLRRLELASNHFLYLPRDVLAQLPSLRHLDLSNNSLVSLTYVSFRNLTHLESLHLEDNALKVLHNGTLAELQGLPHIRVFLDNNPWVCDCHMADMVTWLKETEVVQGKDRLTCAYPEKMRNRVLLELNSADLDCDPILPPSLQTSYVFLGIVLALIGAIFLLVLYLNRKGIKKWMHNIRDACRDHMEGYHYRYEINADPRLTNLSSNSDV
As to the kind of experiment: flow cytometry on SK-OV-3 cells.
On to B1, for which the binding result is “binds”.
B2: the binding result is recorded as “binds”.
The value for B3 was “binds”; that for B4 was “binds”.
On to B5, for which the binding entry is recorded as “binds”.
Take B6: the binding entry is recorded as “binds”.
Under B7 stands “binds”; under B8, “binds”; under B9, “binds”.
The value for B10 was “binds”; that for B11 was “binds”.
